Source: paper PMC8976915
No constants are given. Whether binding was seen depends on the method and setting. Binding seen in cells or lysates may run through a third protein. A yes stands for co-enrichment or nearness to the bait. Other partners may have been found.

B1: eIF5b (protein, UniProt O60841 1-1220)
chain: MGKKQKNKSEDSTKDDIDLDALAAEIEGAGAAKEQEPQKSKGKKKKEKKKQDFDEDDILKELEELSLEAQGIKADRETVAVKPTENNEEEFTSKDKKKKGQKGKKQSFDDNDSEELEDKDSKSKKTAKPKVEMYSGSDDDDDFNKLPKKAKGKAQKSNKKWDGSEEDEDNSKKIKERSRINSSGESGDESDEFLQSRKGQKKNQKNKPGPNIESGNEDDDASFKIKTVAQKKAEKKERERKKRDEEKAKLRKLKEKEELETGKKDQSKQKESQRKFEEETVKSKVTVDTGVIPASEEKAETPTAAEDDNEGDKKKKDKKKKKGEKEEKEKEKKKGPSKATVKAMQEALAKLKEEEERQKREEEERIKRLEELEAKRKEEERLEQEKRERKKQKEKERKERLKKEGKLLTKSQREARARAEATLKLLQAQGVEVPSKDSLPKKRPIYEDKKRKKIPQQLESKEVSESMELCAAVEVMEQGVPEKEETPPPVEPEEEEDTEDAGLDDWEAMASDEETEKVEGNKVHIEVKENPEEEEEEEEEEEEDEESEEEEEEEGESEGSEGDEEDEKVSDEKDSGKTLDKKPSKEMSSDSEYDSDDDRTKEERAYDKAKRRIEKRRLEHSKNVNTEKLRAPIICVLGHVDTGKTKILDKLRHTHVQDGEAGGITQQIGATNVPLEAINEQTKMIKNFDRENVRIPGMLIIDTPGHESFSNLRNRGSSLCDIAILVVDIMHGLEPQTIESINLLKSKKCPFIVALNKIDRLYDWKKSPDSDVAATLKKQKKNTKDEFEERAKAIIVEFAQQGLNAALFYENKDPRTFVSLVPTSAHTGDGMGSLIYLLVELTQTMLSKRLAHCEELRAQVMEVKALPGMGTTIDVILINGRLKEGDTIIVPGVEGPIVTQIRGLLLPPPMKELRVKNQYEKHKEVEAAQGVKILGKDLEKTLAGLPLLVAYKEDEIPVLKDELIHELKQTLNAIKLEEKGVYVQASTLGSLEALLEFLKTSEVPYAGINIGPVHKKDVMKASVMLEHDPQYAVILAFDVRIERDAQEMADSLGVRIFSAEIIYHLFDAFTKYRQDYKKQKQEEFKHIAVFPCKIKILPQYIFNSRDPIVMGVTVEAGQVKQGTPMCVPSKNFVDIGIVTSIEINHKQVDVAKKGQEVCVKIEPIPGESPKMFGRHFEATDILVSKISRQSIDALKDWFRDEMQKSDWQLIVELKKVFEII
B2: G3BP2 (protein, UniProt Q9UN86 1-482)
chain: MVMEKPSPLLVGREFVRQYYTLLNKAPEYLHRFYGRNSSYVHGGVDASGKPQEAVYGQNDIHHKVLSLNFSECHTKIRHVDAHATLSDGVVVQVMGLLSNSGQPERKFMQTFVLAPEGSVPNKFYVHNDMFRYEDEVFGDSEPELDEESEDEVEEEQEERQPSPEPVQENANSGYYEAHPVTNGIEEPLEESSHEPEPEPESETKTEELKPQVEEKNLEELEEKSTTPPPAEPVSLPQEPPKAFSWASVTSKNLPPSGTVSSSGIPPHVKAPVSQPRVEAKPEVQSQPPRVREQRPRERPGFPPRGPRPGRGDMEQNDSDNRRIIRYPDSHQLFVGNLPHDIDENELKEFFMSFGNVVELRINTKGVGGKLPNFGFVVFDDSEPVQRILIAKPIMFRGEVRLNVEEKKTRAARERETRGGGDDRRDIRRNDRGPGGPRGIVGGGMMRDRDGRGPPPRGGMAQKLGSGRGTGQMEGRFTGQRR
B3: SRSF7 (protein, UniProt Q16629 1-238)
chain: MSRYGRYGGETKVYVGNLGTGAGKGELERAFSYYGPLRTVWIARNPPGFAFVEFEDPRDAEDAVRGLDGKVICGSRVRVELSTGMPRRSRFDRPPARRPFDPNDRCYECGEKGHYAYDCHRYSRRRRSRSRSRSHSRSRGRRYSRSRSRSRGRRSRSASPRRSRSISLRRSRSASLRRSRSGSIKGSRYFQSPSRSRSRSRSISRPRSSRSKSRSPSPKRSRSPSGSPRRSASPERMD
B4: SRSF2 (protein, UniProt Q01130 1-221)
chain: MSYGRPPPDVEGMTSLKVDNLTYRTSPDTLRRVFEKYGRVGDVYIPRDRYTKESRGFAFVRFHDKRDAEDAMDAMDGAVLDGRELRVQMARYGRPPDSHHSRRGPPPRRYGGGGYGRRSRSPRRRRRSRSRSRSRSRSRSRSRYSRSKSRSRTRSRSRSTSKSRSARRSKSKSSSVSRSRSRSRSRSRSRSPPPVSKRESKSRSRSKSPPKSPEEEGAVSS
B5: DDX1 (protein, UniProt Q92499 1-740)
chain: MAAFSEMGVMPEIAQAVEEMDWLLPTDIQAESIPLILGGGDVLMAAETGSGKTGAFSIPVIQIVYETLKDQQEGKKGKTTIKTGASVLNKWQMNPYDRGSAFAIGSDGLCCQSREVKEWHGCRATKGLMKGKHYYEVSCHDQGLCRVGWSTMQASLDLGTDKFGFGFGGTGKKSHNKQFDNYGEEFTMHDTIGCYLDIDKGHVKFSKNGKDLGLAFEIPPHMKNQALFPACVLKNAELKFNFGEEEFKFPPKDGFVALSKAPDGYIVKSQHSGNAQVTQTKFLPNAPKALIVEPSRELAEQTLNNIKQFKKYIDNPKLRELLIIGGVAARDQLSVLENGVDIVVGTPGRLDDLVSTGKLNLSQVRFLVLDEADGLLSQGYSDFINRMHNQIPQVTSDGKRLQVIVCSATLHSFDVKKLSEKIMHFPTWVDLKGEDSVPDTVHHVVVPVNPKTDRLWERLGKSHIRTDDVHAKDNTRPGANSPEMWSEAIKILKGEYAVRAIKEHKMDQAIIFCRTKIDCDNLEQYFIQQGGGPDKKGHQFSCVCLHGDRKPHERKQNLERFKKGDVRFLICTDVAARGIDIHGVPYVINVTLPDEKQNYVHRIGRVGRAERMGLAISLVATEKEKVWYHVCSSRGKGCYNTRLKEDGGCTIWYNEMQLLSEIEEHLNCTISQVEPDIKVPVDEFDGKVTYGQKRAAGGGSYKGHVDILAPTVQELAALEKEAQTSFLHLGYLPNQLFRTF

Each binder was assayed against GFP-G3BP1 (Ras-GTPase activating SH3 domain-binding protein 1) (UniProt Q13283) (assay: affinity purification with mass spectrometry; U2OS GFP-G3BP1 cells treated with VFS for 1 h; granule-enriched fraction made by sequential centrifugation; IP with anti-GFP antibody (control IgG) and Protein A Dynabeads at 4°C; washes with SG lysis buffer + 2 M urea, + 300 mM potassium acetate, then TE; LC-MS/MS, MaxQuant; hits at ≥1 log2-fold over control IgG).

binding, binds:
B1
B2
B3
B4
B5
